Measurements from PMC7782687, “Insights into SusCD-mediated glycan import by a prominent gut symbiont” (Nature Communications, 2021).
No constants are given. Whether binding was seen depends on the method and setting. Binding seen in cells or lysates may run through a third protein. Binding calls can cover weak binding; strength is not graded here. Where a sequence is shown, tags or fusion partners need not be part of it.

Molecular target: T1, Bt1762 (SusD) of the Bacteroides thetaiotaomicron levan utilisation locus, with C-terminal His6 tag (Bacteroides thetaiotaomicron) (UniProt Q8A6W4)
T1 sequence (chain, lipid anchor (lipoprotein)): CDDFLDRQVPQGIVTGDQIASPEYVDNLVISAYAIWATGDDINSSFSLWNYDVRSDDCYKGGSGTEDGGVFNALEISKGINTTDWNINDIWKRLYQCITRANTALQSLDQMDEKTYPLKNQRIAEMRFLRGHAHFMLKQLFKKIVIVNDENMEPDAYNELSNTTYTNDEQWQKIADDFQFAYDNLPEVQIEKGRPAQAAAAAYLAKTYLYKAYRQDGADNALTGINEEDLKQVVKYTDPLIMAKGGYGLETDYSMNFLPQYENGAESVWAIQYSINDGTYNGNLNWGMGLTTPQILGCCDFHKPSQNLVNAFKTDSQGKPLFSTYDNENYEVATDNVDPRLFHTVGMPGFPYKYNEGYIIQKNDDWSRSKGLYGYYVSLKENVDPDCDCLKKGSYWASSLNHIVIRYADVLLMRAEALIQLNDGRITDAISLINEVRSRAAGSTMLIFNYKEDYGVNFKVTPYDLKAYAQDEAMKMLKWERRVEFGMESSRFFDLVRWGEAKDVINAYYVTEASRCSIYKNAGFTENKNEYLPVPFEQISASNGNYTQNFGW
Test: co-purification (IMAC by the His6 tag on Bt1762, SDS-PAGE); OM fractions (LDAO extract) of WT (Bt1762-his) and mutant strains grown on MM fructose; Ni column, 0.2% LDAO in 20 mM Tris, 300 mM NaCl pH 8

Substance	binding
Bt1763 (SusC) Δhinge1 (loop L7 deleted) (from UniProt Q8A6W3)	binds
Bt1763 (SusC) Δhinge2 (loop L6 deleted) (from UniProt Q8A6W3)	binds

The remaining lines, values ahead:

binding	Substance
binds	Bt1763 (SusC) TonB box mut (TonB box mutated to all-Ala) (from UniProt Q8A6W3)
binds	Bt1763 (SusC) ΔNTE (N-terminal extension deleted) (from UniProt Q8A6W3)
binds	Bt1763 (SusC) ΔTonB box (from UniProt Q8A6W3)
